# Out of some 59,000 compounds screened, about 6,500 (11%) were called active. This list was built around the results that the source calls inconclusive (neither active nor inactive); the mix of calls is not that of the screen. No stated cut-off is given here; in the data, active means max dye-equivalent concentration above about 10 nM; inconclusive means mostly about 1.1 nM to 9.6 nM; inactive means weaker than that.
# Assay: qHTS Assay for Spectroscopic Profiling in A350 Spectral Region
# Details: Compound autofluorescence, 340/450 nm, Alexa 350 dye-equivalents; stronger effect = higher value
row,SMILES,max dye-equivalent concentration
1,Cc1ccc(S(=O)(=O)N2CCN(S(=O)(=O)N3CCCCC3)CC2)c(C)c1,inactive
2,COc1cc(NC(=O)C(C)Oc2ccccc2)cc(OC)c1 (stereo not given),inconclusive: 3.1 nM
3,COCCNc1nc2c(c(=O)n(C)c(=O)n2C)n1Cc1cccc(C)c1,inconclusive: 1.4 nM
4,COCCn1c(=O)c(-c2cccs2)nc2cnc(Oc3ccc(OC)cc3)nc21,inconclusive: 1.9 nM
5,Cc1cnc(NC(=O)C(C)N2C(=O)C3CC=CCC3C2=O)s1 (stereo not given),inconclusive: 1.3 nM
6,COC(=O)Sc1nnc(-c2ccc(Br)cc2)o1,inactive
7,O=C(CN1CCOCC1)Nc1ccc(Oc2ccccc2)cc1,inconclusive: 2 nM
8,COc1ccc(C2C(C(=O)NCc3cccnc3)c3ccccc3C(=O)N2C)cc1OC (stereo not given),active: 80 nM
9,CCc1nnc(NC(=O)C(C)N2C(=O)C3C4C=CC(C4)C3C2=O)s1 (stereo not given),inactive
10,COCC(=O)N1CCC2(CC1)CN(Cc1ccc(C#N)cc1)C2,inconclusive: 9.7 nM
11,COc1ccc(C2=Nn3c(nnc3-c3cccnc3)SC2)cc1,inactive
12,CCOC(=O)c1nnc2ccnn2c1N,inconclusive: 8.3 nM
13,O=C(Nc1ccccc1N1CCN(c2ccc(F)cc2)CC1)C1CCCCC1,inconclusive: 1.9 nM
14,CCCn1c(SCC(=O)N2c3ccccc3Sc3ccccc32)nc2c1c(=O)n(C)c(=O)n2C,inactive
15,COc1ccc(C2C3=C(N=C4SCC(=O)N42)c2ccccc2CC3)cc1OC (stereo not given),inactive
16,Cc1ccnc(NC(=O)c2c(O)c3ccccc3n(C)c2=O)c1,inconclusive: 1.2 nM
17,CC(NC(=O)Nc1ccccc1C(F)(F)F)C1CCCO1 (stereo not given),inactive
18,CCCC(c1nnnn1C(C)(C)CC)N1CCN(C2CCCC2)CC1 (stereo not given),inconclusive: 4 nM
19,COc1ccc(Cc2ccc3[nH]c(=O)cc(C)c3c2)cc1S(=O)(=O)O,inactive
20,CCOc1ccc(NC(=O)c2oc3ccccc3c2NC(=O)CC)cc1,inconclusive: 7.8 nM

row,SMILES,max dye-equivalent concentration
1,Nc1ncnc2nc(SCC(=O)N3CCN(c4ccccc4)CC3)[nH]c12,active: 11 nM
2,COc1ccc(C(=O)Cn2c(Br)nc3c2c(=O)n(C)c(=O)n3C)cc1OC,inconclusive: 1.7 nM
3,CN1CCN(c2ncc3nc(-c4cccs4)c(=O)n(-c4ccccc4)c3n2)CC1,active: 11 nM
4,CC1CCCC(C)N1C(=O)c1cc(-c2ccc(Cl)c(Cl)c2)on1 (stereo not given),inactive
5,CCCCCn1c(N2CCN(Cc3ccccc3)CC2)nc2c1c(=O)[nH]c(=O)n2C,inactive
6,O=c1c(-c2cccc(Cl)c2)nc2cncnc2n1Cc1ccccc1,inactive
7,CCN1CC=C2C(C#N)=C(N)C(C#N)(C#N)C(c3cc(Cl)ccc3Cl)C2C1 (stereo not given),active: 250 nM
8,COC(=O)CC1=C(C(=O)OC)C(c2cccc(OCC(N)=O)c2)C(C#N)=C(N)O1 (stereo not given),inconclusive: 3.5 nM
9,COc1ccc2c(=O)cc(-c3ccc(O)cc3)oc2c1,inconclusive: 6.8 nM
10,CC(C)Cc1nc2oc3c(N4CCN(C)CC4)ncnc3c2c2c1CCCC2,inactive
11,N#Cc1nc(-c2ccco2)oc1N1CCN(c2ccccc2)CC1,inconclusive: 1.7 nM
12,O=C(O)c1cccc(CN2CCCCC2)c1,inactive
13,CCOC(=O)c1cc2ccccc2nc1C,inconclusive: 1.1 nM
14,NCCc1ccc(O)c(O)c1,inactive
15,CC(C)Oc1ccc(/C(O)=C2/C(=O)C(=O)N(CCN(C)C)C2c2ccco2)cc1 (stereo not given),inconclusive: 1.1 nM
16,CCCn1c(O)c(CN2CCCCC2)c(C)c(C#N)c1=O,active: 15 nM
17,COc1ccc(CNC(=O)CN(CC2CCCO2)C(=O)CNS(=O)(=O)c2ccc(C)cc2)cc1 (stereo not given),active: 12 nM
18,N#CC(C(=O)NC1CCCCC1)c1nc2ccccc2nc1N1CCN(c2ccc(F)cc2)CC1 (stereo not given),inconclusive: 2.5 nM
19,COc1cccc(N2CCCn3c2nc2c3c(=O)n(CCN3CCOCC3)c(=O)n2C)c1,inconclusive: 2.1 nM
20,Cc1ccc(S(=O)(=O)NC(=O)c2cc(C)n(CCCn3ccnc3)c2C)cc1,inconclusive: 1.3 nM

row,SMILES,max dye-equivalent concentration
1,Cc1ccc2cc(C(c3nnnn3CC3CCCO3)N3CCc4ccccc4C3)c(=O)[nH]c2c1 (stereo not given),inconclusive: 4.1 nM
2,CCC(C(=O)NCc1ccco1)n1nc(-c2ccc(OC)cc2)ccc1=O (stereo not given),inconclusive: 2.8 nM
3,O=C(c1ccc(=O)oc1)N1CCN(C(c2ccccc2)c2ccccc2)CC1,active: 96 nM
4,Cc1ccc2c(c1)[nH]c1c(=O)n(Cc3ccccn3)cnc12,inconclusive: 2.1 nM
5,CCOC(=O)C1=C(N)Oc2cc(C)oc(=O)c2C1c1cccnc1 (stereo not given),inconclusive: 2.9 nM
6,O=S1(=O)CC(O)C(N2CCC(c3ccccc3)CC2)C1 (stereo not given),inconclusive: 3.3 nM
7,Cc1ccc(N(CC(=O)N2CCN(C3CCCCC3)CC2)S(=O)(=O)c2cccnc2)cc1,inactive
8,C=CCC(Nc1ccco1)c1ccccc1 (stereo not given),inconclusive: 2.9 nM
9,CCN(CC)CCOc1nc(C)nc2c1oc1ccccc12,inactive
10,NC(N)=NC(N)=Nc1ccccc1,inconclusive: 7.2 nM
11,O=C(O)CCc1ccc(-c2cccs2)n1NC(=O)c1ccccc1Br,inconclusive: 2 nM
12,COC(=O)CCN(C(C)=O)c1ccc(N)cc1,inconclusive: 5 nM
13,O=c1c2[nH]c3ccccc3c2ncn1CCN1CCNCC1,inconclusive: 1.6 nM
14,Cc1ccc(S(=O)(=O)Nc2nc3ccccc3nc2NCc2ccco2)cc1,active: 150 nM
15,CC(=O)Nc1ccc(Oc2ccc3nc(C)[nH]c3c2)cc1,inconclusive: 1.1 nM
16,COc1cccc(-c2cc(C(=O)NCCc3ccccc3)no2)c1,inactive
17,Cc1ccc(C2NC(=O)c3ccccc3N2)s1 (stereo not given),active: 650 nM
18,Cc1ccc(C2NC(=O)NC3=C2CCc2ccccc23)cc1 (stereo not given),active: 1300 nM
19,COC(=O)CSc1nnc(CNC(=O)c2ccco2)n1-c1ccc(F)cc1,inactive
20,CCCCN(Cc1cc2cc(OC)ccc2[nH]c1=O)C(=O)c1ccccn1,active: 410 nM

# Molecules above that have bromine:
row,SMILES,max dye-equivalent concentration
6,COC(=O)Sc1nnc(-c2ccc(Br)cc2)o1,inactive
2,COc1ccc(C(=O)Cn2c(Br)nc3c2c(=O)n(C)c(=O)n3C)cc1OC,inconclusive: 1.7 nM
11,O=C(O)CCc1ccc(-c2cccs2)n1NC(=O)c1ccccc1Br,inconclusive: 2 nM
